Measured values taken from the supplement of paper PMC12823440, “Inhibitors supercharge kinase turnover through native proteolytic circuits” (Nature, 2025).
The list shows a part of the results. The calls rarely recur for the same compound in another form.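 Kinases, fused to nanoluciferase, were expressed in K562 cells; luminescence was measured every 4 h from 2 to 18 h as percent of control (DMSO = 100%, positive control = 0%). A time point is decreased if signal falls significantly (2 sigma). Hits were called by the authors by a rule that is not shown; the count of time points alone does not decide it.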

The chains behind the UniProt entries cited, without tags or fusion partners. Where a name states a change or a piece, a line headed by the entry shows the natural chain unless it says otherwise.
UniProt P50613: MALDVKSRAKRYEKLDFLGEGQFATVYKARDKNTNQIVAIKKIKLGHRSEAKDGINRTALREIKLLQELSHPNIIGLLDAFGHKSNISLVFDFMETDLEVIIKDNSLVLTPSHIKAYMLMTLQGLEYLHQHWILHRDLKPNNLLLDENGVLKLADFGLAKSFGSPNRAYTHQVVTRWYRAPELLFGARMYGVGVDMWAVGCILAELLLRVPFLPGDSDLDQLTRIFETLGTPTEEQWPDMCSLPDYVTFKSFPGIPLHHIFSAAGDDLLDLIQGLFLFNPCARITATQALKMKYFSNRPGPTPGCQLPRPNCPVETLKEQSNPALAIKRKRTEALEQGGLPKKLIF
UniProt O96017, whole entry: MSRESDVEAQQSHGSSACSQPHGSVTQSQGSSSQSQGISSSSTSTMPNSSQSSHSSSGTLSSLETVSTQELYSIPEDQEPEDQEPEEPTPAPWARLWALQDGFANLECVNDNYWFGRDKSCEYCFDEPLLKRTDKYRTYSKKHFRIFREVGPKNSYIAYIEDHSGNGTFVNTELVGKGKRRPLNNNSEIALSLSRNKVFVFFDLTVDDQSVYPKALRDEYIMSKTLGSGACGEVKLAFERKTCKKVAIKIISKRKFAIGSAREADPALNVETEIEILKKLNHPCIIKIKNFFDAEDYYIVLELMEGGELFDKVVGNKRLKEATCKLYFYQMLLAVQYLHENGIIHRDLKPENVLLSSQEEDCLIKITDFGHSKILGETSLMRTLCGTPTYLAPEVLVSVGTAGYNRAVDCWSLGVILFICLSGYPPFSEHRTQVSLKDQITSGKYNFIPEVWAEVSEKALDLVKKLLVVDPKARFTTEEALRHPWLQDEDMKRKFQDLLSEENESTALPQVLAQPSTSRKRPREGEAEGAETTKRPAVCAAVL
UniProt P07333, whole entry: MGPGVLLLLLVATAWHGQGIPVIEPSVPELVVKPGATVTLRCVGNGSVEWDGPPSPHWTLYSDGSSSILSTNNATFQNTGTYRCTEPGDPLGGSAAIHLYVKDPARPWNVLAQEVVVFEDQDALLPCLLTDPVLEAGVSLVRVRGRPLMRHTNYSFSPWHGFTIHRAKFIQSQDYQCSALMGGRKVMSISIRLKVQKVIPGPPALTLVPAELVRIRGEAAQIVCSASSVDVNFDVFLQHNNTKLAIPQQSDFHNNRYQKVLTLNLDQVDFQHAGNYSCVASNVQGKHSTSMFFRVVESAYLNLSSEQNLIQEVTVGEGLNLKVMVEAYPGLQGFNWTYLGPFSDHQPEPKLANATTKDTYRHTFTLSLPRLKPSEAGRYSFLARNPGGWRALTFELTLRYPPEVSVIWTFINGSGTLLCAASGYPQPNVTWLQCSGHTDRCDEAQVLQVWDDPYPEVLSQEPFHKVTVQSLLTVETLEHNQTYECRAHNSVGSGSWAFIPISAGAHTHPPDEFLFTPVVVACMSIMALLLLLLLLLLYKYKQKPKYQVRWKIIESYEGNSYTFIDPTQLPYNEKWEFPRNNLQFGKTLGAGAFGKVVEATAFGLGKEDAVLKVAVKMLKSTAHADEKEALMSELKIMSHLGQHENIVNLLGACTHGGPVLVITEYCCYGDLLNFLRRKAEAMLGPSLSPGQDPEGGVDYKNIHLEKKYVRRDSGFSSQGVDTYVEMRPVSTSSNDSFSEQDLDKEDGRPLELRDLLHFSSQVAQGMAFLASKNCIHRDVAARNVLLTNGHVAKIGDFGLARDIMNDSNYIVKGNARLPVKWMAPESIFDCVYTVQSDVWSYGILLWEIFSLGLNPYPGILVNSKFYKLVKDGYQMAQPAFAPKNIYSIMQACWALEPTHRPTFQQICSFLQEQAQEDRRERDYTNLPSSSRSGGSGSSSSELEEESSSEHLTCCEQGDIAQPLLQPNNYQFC
UniProt P48729: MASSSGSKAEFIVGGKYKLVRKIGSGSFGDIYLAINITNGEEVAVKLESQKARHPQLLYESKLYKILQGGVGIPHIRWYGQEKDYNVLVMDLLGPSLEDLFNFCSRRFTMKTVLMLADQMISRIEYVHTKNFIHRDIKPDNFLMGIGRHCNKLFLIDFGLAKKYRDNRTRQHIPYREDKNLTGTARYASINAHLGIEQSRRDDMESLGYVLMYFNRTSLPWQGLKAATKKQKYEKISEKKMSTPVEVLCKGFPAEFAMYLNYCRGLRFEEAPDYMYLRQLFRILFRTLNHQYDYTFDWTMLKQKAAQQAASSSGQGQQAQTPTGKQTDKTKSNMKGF
UniProt Q08345: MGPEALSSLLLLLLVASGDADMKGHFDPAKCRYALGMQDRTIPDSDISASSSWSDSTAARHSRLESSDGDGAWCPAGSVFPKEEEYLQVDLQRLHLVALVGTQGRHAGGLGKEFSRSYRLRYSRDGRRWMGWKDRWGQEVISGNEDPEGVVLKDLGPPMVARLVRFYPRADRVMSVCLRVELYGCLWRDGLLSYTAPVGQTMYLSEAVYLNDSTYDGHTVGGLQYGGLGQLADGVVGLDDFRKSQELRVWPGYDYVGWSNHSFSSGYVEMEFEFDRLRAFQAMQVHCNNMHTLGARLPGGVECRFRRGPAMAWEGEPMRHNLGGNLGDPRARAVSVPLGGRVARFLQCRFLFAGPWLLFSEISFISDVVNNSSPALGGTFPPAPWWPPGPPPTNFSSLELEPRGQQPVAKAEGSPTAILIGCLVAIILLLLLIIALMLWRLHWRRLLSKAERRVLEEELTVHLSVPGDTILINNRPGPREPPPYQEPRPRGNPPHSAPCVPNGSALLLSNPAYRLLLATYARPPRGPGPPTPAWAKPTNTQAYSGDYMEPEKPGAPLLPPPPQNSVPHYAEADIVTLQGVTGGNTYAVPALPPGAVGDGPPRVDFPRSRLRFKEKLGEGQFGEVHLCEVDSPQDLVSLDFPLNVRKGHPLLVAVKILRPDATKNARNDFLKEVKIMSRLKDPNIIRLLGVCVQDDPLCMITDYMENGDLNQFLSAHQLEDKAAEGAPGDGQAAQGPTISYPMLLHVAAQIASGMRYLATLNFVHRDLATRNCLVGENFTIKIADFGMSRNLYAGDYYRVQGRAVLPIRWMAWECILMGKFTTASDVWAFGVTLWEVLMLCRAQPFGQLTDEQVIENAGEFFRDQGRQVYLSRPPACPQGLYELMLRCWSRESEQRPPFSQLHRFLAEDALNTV
UniProt Q9Y463, whole entry, looked up: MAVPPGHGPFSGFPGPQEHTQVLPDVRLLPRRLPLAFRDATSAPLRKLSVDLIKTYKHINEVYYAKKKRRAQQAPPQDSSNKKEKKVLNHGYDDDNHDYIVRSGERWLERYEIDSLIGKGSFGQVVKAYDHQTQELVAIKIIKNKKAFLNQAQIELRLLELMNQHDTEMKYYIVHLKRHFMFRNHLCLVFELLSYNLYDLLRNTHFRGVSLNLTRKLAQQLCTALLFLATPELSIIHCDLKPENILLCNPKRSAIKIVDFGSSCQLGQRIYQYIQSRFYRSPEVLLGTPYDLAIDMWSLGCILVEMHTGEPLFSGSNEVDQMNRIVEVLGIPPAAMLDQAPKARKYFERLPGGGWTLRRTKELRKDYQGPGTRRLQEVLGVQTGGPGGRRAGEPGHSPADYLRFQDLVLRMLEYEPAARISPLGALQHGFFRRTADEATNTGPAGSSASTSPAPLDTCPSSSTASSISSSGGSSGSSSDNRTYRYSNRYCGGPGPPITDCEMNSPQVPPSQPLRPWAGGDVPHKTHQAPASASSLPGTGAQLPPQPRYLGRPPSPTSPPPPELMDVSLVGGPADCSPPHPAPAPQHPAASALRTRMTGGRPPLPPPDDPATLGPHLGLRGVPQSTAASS
UniProt P29317, whole entry: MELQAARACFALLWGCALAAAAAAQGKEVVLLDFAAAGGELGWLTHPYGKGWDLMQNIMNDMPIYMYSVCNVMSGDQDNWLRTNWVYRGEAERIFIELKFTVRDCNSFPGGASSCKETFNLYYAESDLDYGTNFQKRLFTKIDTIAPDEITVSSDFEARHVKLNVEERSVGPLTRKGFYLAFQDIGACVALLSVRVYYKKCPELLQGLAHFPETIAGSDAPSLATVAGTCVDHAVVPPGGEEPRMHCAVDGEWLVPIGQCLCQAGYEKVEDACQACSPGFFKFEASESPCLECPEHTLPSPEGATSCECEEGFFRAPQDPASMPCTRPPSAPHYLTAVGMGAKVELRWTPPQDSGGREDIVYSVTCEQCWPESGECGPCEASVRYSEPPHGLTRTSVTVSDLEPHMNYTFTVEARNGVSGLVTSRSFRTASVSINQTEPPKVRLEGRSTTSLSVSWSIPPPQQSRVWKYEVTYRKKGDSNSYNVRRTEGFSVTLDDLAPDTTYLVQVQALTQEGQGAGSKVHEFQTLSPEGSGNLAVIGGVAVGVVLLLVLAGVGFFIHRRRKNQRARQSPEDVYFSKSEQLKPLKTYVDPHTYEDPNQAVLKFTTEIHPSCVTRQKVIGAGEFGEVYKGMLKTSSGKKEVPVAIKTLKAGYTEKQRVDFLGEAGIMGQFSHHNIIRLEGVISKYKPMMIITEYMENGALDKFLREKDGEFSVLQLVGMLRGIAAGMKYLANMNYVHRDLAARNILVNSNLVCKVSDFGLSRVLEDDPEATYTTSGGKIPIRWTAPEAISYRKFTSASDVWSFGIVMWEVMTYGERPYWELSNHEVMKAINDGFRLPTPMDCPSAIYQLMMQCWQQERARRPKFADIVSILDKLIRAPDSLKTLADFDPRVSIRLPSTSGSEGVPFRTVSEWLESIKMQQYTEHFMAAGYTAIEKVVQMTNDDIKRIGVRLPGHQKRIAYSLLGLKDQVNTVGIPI
UniProt P21860, whole entry: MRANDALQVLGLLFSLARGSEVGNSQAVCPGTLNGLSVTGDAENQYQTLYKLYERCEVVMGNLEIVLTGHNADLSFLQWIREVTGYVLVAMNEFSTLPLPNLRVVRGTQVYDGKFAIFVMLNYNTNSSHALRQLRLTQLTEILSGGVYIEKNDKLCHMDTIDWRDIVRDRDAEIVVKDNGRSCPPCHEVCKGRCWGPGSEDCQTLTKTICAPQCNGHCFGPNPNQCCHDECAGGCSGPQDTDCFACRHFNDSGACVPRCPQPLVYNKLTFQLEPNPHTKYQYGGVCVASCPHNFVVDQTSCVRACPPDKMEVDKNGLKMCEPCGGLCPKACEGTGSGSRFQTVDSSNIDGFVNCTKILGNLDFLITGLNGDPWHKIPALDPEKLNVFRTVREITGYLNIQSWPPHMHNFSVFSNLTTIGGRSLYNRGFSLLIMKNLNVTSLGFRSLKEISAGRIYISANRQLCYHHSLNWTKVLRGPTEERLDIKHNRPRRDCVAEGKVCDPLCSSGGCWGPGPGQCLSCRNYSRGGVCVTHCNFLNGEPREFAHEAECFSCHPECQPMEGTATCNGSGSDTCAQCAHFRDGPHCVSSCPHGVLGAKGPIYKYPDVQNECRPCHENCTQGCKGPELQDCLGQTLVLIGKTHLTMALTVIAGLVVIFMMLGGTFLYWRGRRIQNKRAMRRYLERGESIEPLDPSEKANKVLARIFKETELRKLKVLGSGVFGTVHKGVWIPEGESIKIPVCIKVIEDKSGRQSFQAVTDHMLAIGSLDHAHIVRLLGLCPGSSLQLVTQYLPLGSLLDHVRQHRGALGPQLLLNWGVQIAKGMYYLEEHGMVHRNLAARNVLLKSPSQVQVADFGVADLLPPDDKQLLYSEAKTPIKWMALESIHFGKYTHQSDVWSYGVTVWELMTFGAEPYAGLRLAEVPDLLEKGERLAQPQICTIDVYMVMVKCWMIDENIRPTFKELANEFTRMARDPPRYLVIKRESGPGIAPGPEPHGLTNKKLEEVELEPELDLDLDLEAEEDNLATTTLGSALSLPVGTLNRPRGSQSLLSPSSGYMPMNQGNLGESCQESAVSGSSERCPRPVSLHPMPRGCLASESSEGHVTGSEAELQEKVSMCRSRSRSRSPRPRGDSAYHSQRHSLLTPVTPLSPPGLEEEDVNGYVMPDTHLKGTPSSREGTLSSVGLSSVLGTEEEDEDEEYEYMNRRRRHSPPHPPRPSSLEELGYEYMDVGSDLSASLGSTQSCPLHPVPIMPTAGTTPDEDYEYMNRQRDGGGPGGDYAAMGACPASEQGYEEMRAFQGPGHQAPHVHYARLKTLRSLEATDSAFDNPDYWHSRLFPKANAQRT
UniProt P48730: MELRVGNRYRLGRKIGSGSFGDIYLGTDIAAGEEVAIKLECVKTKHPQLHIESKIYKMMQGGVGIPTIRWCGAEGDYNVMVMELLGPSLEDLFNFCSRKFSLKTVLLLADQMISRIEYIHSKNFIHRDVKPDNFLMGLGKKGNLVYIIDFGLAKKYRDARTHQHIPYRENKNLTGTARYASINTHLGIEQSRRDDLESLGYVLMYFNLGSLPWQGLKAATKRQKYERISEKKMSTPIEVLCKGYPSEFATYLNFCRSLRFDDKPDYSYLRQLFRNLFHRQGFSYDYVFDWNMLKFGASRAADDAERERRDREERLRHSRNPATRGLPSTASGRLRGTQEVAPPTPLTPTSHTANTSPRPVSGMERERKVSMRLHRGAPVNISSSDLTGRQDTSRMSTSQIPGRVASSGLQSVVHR

How the values were obtained:
Experiment in all cases: kinase-Nluc reporter destabilization hit call (1 = scored as downregulated) (binary); higher = compound decreases kinase abundance
Conditions in all cases: K562; 2-18 h
CDK7 = CDK7 (UniProt P50613)
CDK9 = CDK9 (UniProt P50750)
CHEK2 = CHEK2 (UniProt O96017)
CSF1R = CSF1R (UniProt P07333)
CSK = CSK (UniProt P41240)
CSNK1A1 = CSNK1A1 (UniProt P48729)
DDR1 = DDR1 (UniProt Q08345)
DYRK1B = DYRK1B (UniProt Q9Y463)
DYRK2 = DYRK2 (UniProt Q92630)
EPHA2 = EPHA2 (UniProt P29317)
ERBB3 = ERBB3 (UniProt P21860)
[1] = biological target: ERBB4_R711C (clone: ERBB4_mut) (UniProt Q15303)
CSNK1D = CSNK1D (UniProt P48730)
EGFR = EGFR (UniProt P00533)
EGFR_G719S = EGFR_G719S (UniProt P00533)
EGFR_G719S_T790M = EGFR_G719S_T790M (UniProt P00533)
EGFR_L718V = EGFR_L718V (UniProt P00533)
EGFR_L858R = EGFR_L858R (UniProt P00533)
EGFR_L861Q = EGFR_L861Q (UniProt P00533)
EGFR_T790M = EGFR_T790M (UniProt P00533)

Measured: kinase-Nluc reporter destabilization hit call

C[C@@H]1CCN(C(=O)CC#N)C[C@@H]1N(C)c1ncnc2[nH]ccc12 [Tofacitinib] (10 µM)
inactive: CDK7 = 0 | CDK9 = 0 | CHEK2 = 0 | CSF1R 0 | CSK 0 | CSNK1A1 = 0 | DDR1 = 0 | DYRK1B 0 | DYRK2 = 0 | EPHA2 = 0 | ERBB3 = 0 | [1] 0

O=C(Nc1ccc(CN2CCOCC2)cc1)c1ccc(-c2cccc(Cl)c2)o1 (10 µM)
inactive: CDK7 = 0 | CDK9 = 0 | CHEK2 = 0 | CSF1R 0 | CSK 0 | CSNK1A1 = 0 | CSNK1D 0 | DDR1 = 0 | DYRK1B 0 | DYRK2 = 0 | EGFR 0 | EGFR_G719S 0 | EGFR_G719S_T790M 0 | EGFR_L718V 0 | EGFR_L858R 0 | EGFR_L861Q 0 | EGFR_T790M 0 | EPHA2 = 0 | ERBB3 = 0 | [1] 0

C[C@]1(O)CCN(c2nc(N3C[C@H](O)[C@@H](O)C3)cc(C(F)(F)F)c2C#N)C1 (10 µM)
inactive: CDK7 = 0 | CDK9 = 0 | CHEK2 = 0 | CSF1R 0 | CSK 0 | CSNK1A1 = 0 | CSNK1D 0 | DDR1 = 0 | DYRK1B 0 | DYRK2 = 0 | EGFR 0 | EGFR_G719S 0 | EGFR_G719S_T790M 0 | EGFR_L718V 0 | EGFR_L858R 0 | EGFR_L861Q 0 | EGFR_T790M 0 | EPHA2 = 0 | ERBB3 = 0 | [1] 0

CC1CCc2c(cc(Br)c(F)c2Br)N1C=O (configuration not stated) (10 µM)
inactive: CDK7 = 0 | CDK9 = 0 | CHEK2 = 0 | CSF1R 0 | CSK 0 | CSNK1A1 = 0 | CSNK1D 0 | DDR1 = 0 | DYRK1B 0 | DYRK2 = 0 | EGFR 0 | EGFR_G719S 0 | EGFR_G719S_T790M 0 | EGFR_L718V 0 | EGFR_L858R 0 | EGFR_L861Q 0 | EGFR_T790M 0 | EPHA2 = 0 | ERBB3 = 0 | [1] 0

COc1ccc(OC)c(C2C(C#N)=C(N)Oc3n[nH]c(-c4ccc5ccccc5c4)c32)c1 (configuration not stated) (10 µM)
inactive: CDK7 = 0 | CDK9 = 0 | CHEK2 = 0 | CSF1R 0 | CSK 0 | CSNK1A1 = 0 | CSNK1D 0 | DDR1 = 0 | DYRK1B 0 | DYRK2 = 0 | EGFR 0 | EGFR_G719S 0 | EGFR_G719S_T790M 0 | EGFR_L718V 0 | EGFR_L858R 0 | EGFR_L861Q 0 | EGFR_T790M 0 | EPHA2 = 0 | ERBB3 = 0 | [1] 0

COc1cc2c(N3CCN(C(=O)Nc4ccc(OC(C)C)cc4)CC3)ncnc2cc1OCCCN1CCCCC1 [Tandutinib] (10 µM)
inactive: CDK7 = 0 | CDK9 = 0 | CHEK2 = 0 | CSK 0 | CSNK1A1 = 0 | CSNK1D 0 | DDR1 = 0 | DYRK1B 0 | DYRK2 = 0 | EPHA2 = 0 | ERBB3 = 0 | [1] 0

Cc1cc(CN2CCN(c3c(Br)cnc4nc(-c5ccc(N6CCN(C)CC6)cc5)[nH]c34)CC2)no1 (2.5 µM)
inactive: CDK7 = 0 | CDK9 = 0 | CHEK2 = 0 | CSF1R 0 | CSK 0 | CSNK1A1 = 0 | CSNK1D 0 | DDR1 = 0 | DYRK1B 0 | DYRK2 = 0 | EGFR 0 | EGFR_G719S 0 | EGFR_G719S_T790M 0 | EGFR_L718V 0 | EGFR_L858R 0 | EGFR_L861Q 0 | EGFR_T790M 0 | EPHA2 = 0 | ERBB3 = 0 | [1] 0

Oc1cc(O)c2cc(O)c(-c3cc(O)c(O)c(O)c3)[o+]c2c1 [Delphinidin (chloride)] (10 µM)
inactive: CDK7 = 0 | CDK9 = 0 | CHEK2 = 0 | CSF1R 0 | CSK 0 | CSNK1A1 = 0 | CSNK1D 0 | DDR1 = 0 | DYRK1B 0 | DYRK2 = 0 | EGFR 0 | EGFR_G719S 0 | EGFR_G719S_T790M 0 | EGFR_L718V 0 | EGFR_L858R 0 | EGFR_L861Q 0 | EGFR_T790M 0 | EPHA2 = 0 | ERBB3 = 0 | [1] 0

Already shown: 2 of the compounds above.
Cc1cc(CN2CCN(c3c(Br)cnc4nc(-c5ccc(N6CCN(C)CC6)cc5)[nH]c34)CC2)no1 (2.5 µM)
inactive: CDK7 = 0 | CDK9 = 0 | CHEK2 = 0 | CSF1R 0 | CSK 0 | CSNK1A1 = 0 | CSNK1D 0 | DDR1 = 0 | DYRK1B 0 | DYRK2 = 0 | EGFR 0 | EGFR_G719S 0 | EGFR_G719S_T790M 0 | EGFR_L718V 0 | EGFR_L858R 0 | EGFR_L861Q 0 | EGFR_T790M 0 | EPHA2 = 0 | ERBB3 = 0 | [1] 0

Oc1cc(O)c2cc(O)c(-c3cc(O)c(O)c(O)c3)[o+]c2c1 [Delphinidin (chloride)] (10 µM)
inactive: CDK7 = 0 | CDK9 = 0 | CHEK2 = 0 | CSF1R 0 | CSK 0 | CSNK1A1 = 0 | CSNK1D 0 | DDR1 = 0 | DYRK1B 0 | DYRK2 = 0 | EGFR 0 | EGFR_G719S 0 | EGFR_G719S_T790M 0 | EGFR_L718V 0 | EGFR_L858R 0 | EGFR_L861Q 0 | EGFR_T790M 0 | EPHA2 = 0 | ERBB3 = 0 | [1] 0

Further records.

O=C1Nc2ccc(C(=O)c3ccco3)cc2C1=Cc1cc(Cl)c(O)c(Cl)c1 (2.5 µM)
inactive: CDK7 = 0 | CDK9 = 0 | CHEK2 = 0 | CSF1R 0 | CSK 0 | CSNK1A1 = 0 | CSNK1D 0 | DDR1 = 0 | DYRK1B 0 | DYRK2 = 0 | EGFR 0 | EGFR_G719S 0 | EGFR_G719S_T790M 0 | EGFR_L718V 0 | EGFR_L858R 0 | EGFR_L861Q 0 | EGFR_T790M 0 | EPHA2 = 0 | ERBB3 = 0 | [1] 0

CC#CC(=O)N1CC[C@@H](n2c(=O)n(-c3ccc(Oc4ccccc4)cc3)c3c(N)ncnc32)C1 [Tirabrutinib] (10 µM)
inactive: CDK7 = 0 | CDK9 = 0 | CHEK2 = 0 | CSF1R 0 | CSK 0 | CSNK1A1 = 0 | CSNK1D 0 | DDR1 = 0 | DYRK1B 0 | DYRK2 = 0 | EGFR 0 | EGFR_G719S 0 | EGFR_G719S_T790M 0 | EGFR_L718V 0 | EGFR_L858R 0 | EGFR_L861Q 0 | EGFR_T790M 0 | EPHA2 = 0 | ERBB3 = 0 | [1] 0

Cc1cc(O)c2c(c1)C(=O)c1cc(O)cc(O)c1C2=O [Emodin] (10 µM)
inactive: CDK7 = 0 | CDK9 = 0 | CHEK2 = 0 | CSF1R 0 | CSK 0 | CSNK1A1 = 0 | CSNK1D 0 | DDR1 = 0 | DYRK1B 0 | DYRK2 = 0 | EGFR 0 | EGFR_G719S 0 | EGFR_G719S_T790M 0 | EGFR_L718V 0 | EGFR_L858R 0 | EGFR_L861Q 0 | EGFR_T790M 0 | EPHA2 = 0 | ERBB3 = 0 | [1] 0

FC(F)c1nc2ccccc2n1-c1nc(N2CCOCC2)nc(N2CCOCC2)n1 (2 µM)
inactive: CDK7 = 0 | CDK9 = 0 | CHEK2 = 0 | CSF1R 0 | CSK 0 | CSNK1A1 = 0 | CSNK1D 0 | DDR1 = 0 | DYRK1B 0 | DYRK2 = 0 | EGFR 0 | EGFR_G719S 0 | EGFR_G719S_T790M 0 | EGFR_L718V 0 | EGFR_L858R 0 | EGFR_L861Q 0 | EGFR_T790M 0 | EPHA2 = 0 | ERBB3 = 0 | [1] 0

O=Nc1c(-c2c(O)[nH]c3ccc(F)cc23)[nH]c2ccccc12 [5'-Fluoroindirubinoxime] (10 µM)
inactive: CDK7 = 0 | CDK9 = 0 | CHEK2 = 0 | CSF1R 0 | CSK 0 | CSNK1A1 = 0 | CSNK1D 0 | DDR1 = 0 | DYRK1B 0 | DYRK2 = 0 | EGFR 0 | EGFR_G719S 0 | EGFR_G719S_T790M 0 | EGFR_L718V 0 | EGFR_L858R 0 | EGFR_L861Q 0 | EGFR_T790M 0 | EPHA2 = 0 | ERBB3 = 0 | [1] 0

COc1cc(Nc2ncc(F)c(Nc3ccc4c(n3)NC(=O)C(C)(C)O4)n2)cc(OC)c1OC [R406 (free base)] (10 µM)
inactive: CDK7 = 0 | CDK9 = 0 | CHEK2 = 0 | CSF1R 0 | CSK 0 | CSNK1A1 = 0 | CSNK1D 0 | DDR1 = 0 | DYRK1B 0 | DYRK2 = 0 | EPHA2 = 0 | ERBB3 = 0 | [1] 0

Cc1c(NC(=O)c2cccn(-c3ccc(F)cc3)c2=O)ccc(Oc2ccnc(NC(=O)C3CC3)c2)c1C (2 µM)
inactive: CDK7 = 0 | CDK9 = 0 | CHEK2 = 0 | CSF1R 0 | CSK 0 | CSNK1A1 = 0 | CSNK1D 0 | DDR1 = 0 | DYRK1B 0 | DYRK2 = 0 | EGFR 0 | EGFR_G719S 0 | EGFR_G719S_T790M 0 | EGFR_L718V 0 | EGFR_L858R 0 | EGFR_L861Q 0 | EGFR_T790M 0 | EPHA2 = 0 | ERBB3 = 0 | [1] 0
